Paper PMC10655563
No constants are given. Whether binding was seen depends on the method and setting. For part of these data: In cells and extracts the contact can be indirect. Some entries that bind do so weakly or less than the wild type. Where a sequence is shown, tags or fusion partners need not be part of it.

Protein sequences, listed by entry. Tags and fused reporters are not part of them. Lines headed by an entry give the natural chain unless they say otherwise; changes in a name come on top. Residues count along the entry.
UniProt P01344: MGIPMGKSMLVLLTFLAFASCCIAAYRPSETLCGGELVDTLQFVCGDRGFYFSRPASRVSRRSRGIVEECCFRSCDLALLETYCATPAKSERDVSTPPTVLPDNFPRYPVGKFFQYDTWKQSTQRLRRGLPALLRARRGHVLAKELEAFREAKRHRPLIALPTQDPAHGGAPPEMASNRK
Synthesized peptide corresponding to residues 112-140 of IGF2 (IGF2^112-140): residues 112-140 of P01344

Columns and labels:
[1] = biological target: T1, FLAG-tagged TMED10 (TMED10-FLAG), full length (human) (UniProt P49755); assay: co-IP; HEK293T cells cotransfected with the indicated constructs; cells treated with 2 mM DSP cross-linker; lysates incubated with beads conjugated with anti-FLAG antibodies; bound proteins analysed by immunoblot
T1 sequence: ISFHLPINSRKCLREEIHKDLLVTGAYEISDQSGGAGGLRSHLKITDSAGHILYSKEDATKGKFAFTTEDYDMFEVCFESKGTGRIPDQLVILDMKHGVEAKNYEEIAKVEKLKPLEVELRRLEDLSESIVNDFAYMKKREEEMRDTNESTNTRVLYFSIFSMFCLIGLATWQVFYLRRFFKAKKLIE

[2] = biological target: T2, FLAG-tagged TMED10^1-130 (TMED10^1-130-FLAG) (human) (UniProt P49755); assay: as above
T2 sequence: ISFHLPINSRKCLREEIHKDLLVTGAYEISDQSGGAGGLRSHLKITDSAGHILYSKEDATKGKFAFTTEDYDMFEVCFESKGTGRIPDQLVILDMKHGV

[3] = biological target: Synthesized peptide corresponding to residues 112-140 of IGF2 (IGF2^112-140) (human) (UniProt P01344); assay: pull-down; IGF2 112-140 peptides covalently linked to thiopyridone sepharose 6B, incubated with purified GST or GST-TMED10 (1-130); bound proteins analysed by immunoblot; both purified

## HA-tagged IGF2 (IGF2-HA) (from UniProt P01344 25-180)
[1]
  binding: binds
[2]
  binding: binds

B1: GST-tagged human TMED10 GOLD domain (residues 1-130) (domain or fragment, UniProt P49755 32-130)
chain: T2 sequence
[3]
  binding: binds
